One substance from paper PMC4592220, “Geminivirus Activates [sequence] LEAVES 2 to Accelerate Cytoplasmic DCP2-Mediated mRNA Turnover and Weakens RNA Silencing in Arabidopsis” (PLoS Pathogens, 2015) can be followed below.

No constants are given. Whether binding was seen depends on the method and setting. Binding calls can cover weak binding; strength is not graded here. Where a sequence is shown, tags or fusion partners need not be part of it.

This test deals with T1, GST-AS2 (… LEAVES 2) (Arabidopsis thaliana) (UniProt O04479).
T1 sequence: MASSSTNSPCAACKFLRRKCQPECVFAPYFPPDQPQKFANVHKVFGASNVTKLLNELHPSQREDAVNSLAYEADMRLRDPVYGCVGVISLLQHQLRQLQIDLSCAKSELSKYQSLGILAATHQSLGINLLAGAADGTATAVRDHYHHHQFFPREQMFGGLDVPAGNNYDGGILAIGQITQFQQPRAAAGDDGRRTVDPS
Put plainly: pull-down; 2 ug of GST/MBP/His/His-SUMO fusion proteins; binding buffer 50 mM Tris-HCl pH 7.5, 100 mM NaCl, 0.25% Triton X-100, 35 mM beta-mercaptoethanol, 2 h at 4 C, then glutathione sepharose 4B overnight; 6 washes; Western blot with anti-His, anti-GST or anti-MBP; both purified. Background: In western blotting, separated proteins are transferred to a membrane and probed.

Take DCP1, recombinant: the binding result is recorded as “binds weakly”.
